Source: paper PMC3338775

How the values were obtained:
[1] = molecular target: ITSN1-S fused to a Venus fragment (VN-ITSN1-S, VC-ITSN1-S); assay: split reporter; BiFC; VN and VC (Venus) fusions co-transfected in COS cells with CFP as marker; confocal imaging the next morning
[2] = molecular target: HA-epitope tagged ITSN1-S; assay: co-IP; HA-tagged ITSN1-S or domains co-expressed with VN-Arfaptin2 (FLAG epitope); HA immunoprecipitates probed for FLAG; cell line not stated
[3] = molecular target: HA-epitope tagged CC region of ITSN1; assay: as above
[4] = molecular target: ITSN1-S fused to a Venus fragment (VN-ITSN1-S, VC-ITSN1-S); assay: split reporter; BiFC; HEK293T cells on coverslips, VN and VC fusions with CFP as marker

B1: VC-Arfaptin2 (protein, UniProt P53365 1-341)
chain: MTDGILGKAATMEIPIHGNGEARQLPEDDGLEQDLQQVMVSGPNLNETSIVSGGYGGSGDGLIPTGSGRHPSHSTTPSGPGDEVARGIAGEKFDIVKKWGINTYKCTKQLLSERFGRGSRTVDLELELQIELLRETKRKYESVLQLGRALTAHLYSLLQTQHALGDAFADLSQKSPELQEEFGYNAETQKLLCKNGETLLGAVNFFVSSINTLVTKTMEDTLMTVKQYEAARLEYDAYRTDLEELSLGPRDAGTRGRLESAQATFQAHRDKYEKLRGDVAIKLKFLEENKIKVMHKQLLLFHNAVSAYFAGNQKQLEQTLQQFNIKLRPPGAEKPSWLEEQ
[1]
  binding: binds

B2: VN-Arfaptin2 (protein, UniProt P53365 1-341)
chain: B1 chain
[2]
  binding: binds
[3]
  binding: binds

## TSRLPPLGVGN [VC-pep]
[4]
  binding: no binding

No constants are given. Whether binding was seen depends on the method and setting. Binding seen in cells or lysates may run through a third protein. For some of these results: Binding calls can cover weak binding; strength is not graded here.
